Here are results for 39 compounds from the supplement of paper PMC12873370.

Where “and” joins values, the source holds several entries; their conditions need not be identical. Identical values can stand only once. The list shows a part of the results. Most values come without repeats; read them as rough.

In the assay the test system is PREPP (mouse prostate epithelium Trp53/Pten KO). The experiment in a line: cell viability relative to untreated (fraction); higher = less growth inhibition. Particulars: 5 µM; 3 days.
In turn, `Oc1cc(O)c2c(c1)O[C@H](c1ccc(O)c(O)c1)[C@@H](O)C2` displayed a cell viability of 0.978.

With `C[C@]1(Cn2ccnn2)[C@H](C(=O)O)N2C(=O)C[C@H]2S1(=O)=O`, the cell viability stood at 0.76.

`C[C@@H]1O[C@@H](O[C@H]2[C@H](O[C@H]3CC[C@@]4(C)[C@@H](CC[C@]5(C)[C@@H]4CC=C4[C@@H]6CC(C)(C)CC[C@]6(C(=O)O[C@@H]6O[C@H](CO[C@@H]7O[C@H](CO)[C@@H](O)[C@H](O)[C@H]7O)[C@@H](O)[C@H](O)[C@H]6O)CC[C@]45C)[C@]3(C)CO)OC[C@H](O)[C@@H]2O)[C@H](O)[C@H](O[C@@H]2O[C@H](CO)[C@@H](O[C@@H]3O[C@H](CO)[C@@H](O)[C@H](O)[C@H]3O)[C@H](O)[C@H]2O)[C@H]1O` displayed a cell viability of 1.12.

As to `O=c1ccn([C@H]2C[C@H](O)[C@@H](CO)O2)c(=O)[nH]1`, the cell viability came to 0.915.

`CN(C)CCCN1c2ccccc2Sc2ccc(Cl)cc21` showed a cell viability of 1.01.

For `COc1ccc(-c2cc(=O)c3c(O)cc(O)cc3o2)cc1O`, the cell viability was 0.741.

As for `OB1OCc2cc(F)ccc21`, the cell viability worked out at 0.885.

Consider `C=CCCC(=O)O`, for which the cell viability is 0.732.

For the compound `Cc1occc(=O)c1O`, the cell viability came to 0.946.

With `COc1cc2c(cc1OC)-c1cc3ccc4c(c3c[n+]1CC2)OCO4`, the cell viability came to 1.12.

Consider `C[C@@H]1O[C@@H](O[C@H]2[C@H](Oc3cc(O)c(C(=O)CCc4ccc(O)cc4)c(O)c3)O[C@H](CO)[C@@H](O)[C@@H]2O)[C@H](O)[C@H](O)[C@H]1O`, for which the cell viability amounted to 0.845.

`COc1c(N2CCNC(C)C2)c(F)cc2c(=O)c(C(=O)O)cn(C3CC3)c12` (centres undefined) returned a cell viability of 0.723.

In the case of `CCCCCCCCCCCCCCCCCC(=O)OC`, the cell viability came out at 0.729.

For the compound `C#CC1(O)CC[C@H]2[C@@H]3CCC4=CC(=O)CC[C@@H]4[C@H]3CC[C@@]21CC` (some centres undefined), the cell viability turned out to be 0.828.

With `NCCCCN`, the cell viability is 1.05 and 1.09.

`COc1cc(NS(=O)(=O)c2ccc(N)cc2)nc(OC)n1`: the cell viability was found to be 0.822.

In turn, `O=C(O)c1cccnc1` came in with a cell viability of 0.922.

`C[C@@H]1CC[C@@]2(NC1)O[C@H]1C[C@H]3[C@@H]4CC=C5C[C@@H](O[C@@H]6O[C@H](CO)[C@@H](O[C@@H]7O[C@@H](C)[C@H](O)[C@@H](O)[C@H]7O)[C@H](O)[C@H]6O[C@@H]6O[C@@H](C)[C@H](O)[C@@H](O)[C@H]6O)CC[C@]5(C)[C@H]4CC[C@]3(C)[C@H]1[C@@H]2C` gave a cell viability of 0.228.

The compound `COc1ccc(C(C)=O)c(O)c1` displayed a cell viability of 1.25.

Compound `Nc1ccc(S(=O)(=O)c2ccc(N)cc2)cc1` registered a cell viability of 0.837.

As for `CCCCC(C)(O)C/C=C/[C@H]1[C@H](O)CC(=O)[C@@H]1CCCCCCC(=O)OC` (some centres undefined), the cell viability turned out to be 0.928.

Compound `Nc1cc(C(=O)O)ccc1O` showed a cell viability of 0.933.

`O=C(OC[C@H]1O[C@@H](OC(=O)c2cc(O)c(O)c(O)c2)[C@H](OC(=O)c2cc(O)c(O)c(O)c2)[C@@H](OC(=O)c2cc(O)c(O)c(O)c2)[C@@H]1OC(=O)c1cc(O)c(O)c(O)c1)c1cc(O)c(O)c(O)c1` gave a cell viability of 0.82.

The compound `NC(N)=NCC(=O)O` registered a cell viability of 1.02.

For `CCOC(=O)O[C@]1(C(=O)OCCl)CC[C@H]2[C@@H]3CCC4=CC(=O)C=C[C@]4(C)[C@H]3[C@@H](O)C[C@@]21C`, the cell viability turned out to be 0.874.

Turning to `CCC[C@@H]1C[C@@H](C(=O)N[C@@H]([C@H]2O[C@H](SC)[C@H](O)[C@@H](O)[C@H]2O)[C@@H](C)O)N(C)C1`, the cell viability worked out at 1.01.

The compound `COc1ccc(O)cc1` gave a cell viability of 0.927.

For `CC(C)c1ccc(C=O)cc1`, the cell viability was 0.95.

The compound `COc1ccc(-c2cc(=S)ss2)cc1` registered a cell viability of 0.899.

`CC1=C2C(=O)O[C@@H](c3ccoc3)[C@]2(C)CCC1`: the cell viability was determined as 0.961.

Regarding `COc1cc2c(cc1OC)[C@H]1[C@@H](C)c3ccc(OC)c(OC)c3CN1CC2`, the cell viability amounted to 0.878.

The compound `O=C1c2c(O)cccc2C([C@@H]2O[C@H](CO)[C@@H](O)[C@H](O)[C@H]2O)c2cc(CO)cc(O)c21` (some centres undefined) registered a cell viability of 1.05.

For the compound `Cc1nnc(NS(=O)(=O)c2ccc(N)cc2)s1`, the cell viability was found to be 0.846.

With `CC[C@H]1OC(=O)[C@H](C)[C@@H](O[C@H]2C[C@@](C)(OC)[C@@H](O)[C@H](C)O2)[C@H](C)[C@@H](O[C@@H]2O[C@H](C)C[C@H](N(C)C)[C@H]2O)[C@](C)(O)C[C@@H](C)CN(C)[C@H](C)[C@@H](O)[C@]1(C)O`, the cell viability was 0.949 and 0.796.

In turn, `CC1(C)CC[C@]2(C(=O)O)CC[C@]3(C)C(=CC[C@@H]4[C@@]5(C)C[C@@H](O)[C@H](O)C(C)(C)[C@@H]5CC[C@]43C)[C@@H]2C1` came in with a cell viability of 0.899.

For `CO[C@H]1C[C@H](O[C@H]2[C@H](C)O[C@@H](O[C@@H]3/C(C)=C/C[C@@H]4C[C@@H](C[C@]5(C=C[C@H](C)[C@@H](C6CCCCC6)O5)O4)OC(=O)[C@@H]4C=C(C)[C@@H](O)[C@H]5OC/C(=C\C=C\[C@@H]3C)[C@]54O)C[C@@H]2OC)O[C@@H](C)[C@@H]1O`, the cell viability amounted to 0.178.

`CCS(=O)(=O)CCn1c([N+](=O)[O-])cnc1C` showed a cell viability of 0.953.

With `CN(C)CCn1nnnc1SCC1=C(C(=O)O)N2C(=O)[C@@H](NC(=O)Cc3csc(N)n3)[C@H]2SC1`, the cell viability came out at 1.01.

`C=C1C(=O)O[C@@H]2C[C@@]3(C)CCC[C@H](C)C3=C[C@H]12` returned a cell viability of 1.04.
